{"sequences": {"note": "Chains of the proteins cited; added tags and fusions are not shown.", "UniProt P17302, whole entry": "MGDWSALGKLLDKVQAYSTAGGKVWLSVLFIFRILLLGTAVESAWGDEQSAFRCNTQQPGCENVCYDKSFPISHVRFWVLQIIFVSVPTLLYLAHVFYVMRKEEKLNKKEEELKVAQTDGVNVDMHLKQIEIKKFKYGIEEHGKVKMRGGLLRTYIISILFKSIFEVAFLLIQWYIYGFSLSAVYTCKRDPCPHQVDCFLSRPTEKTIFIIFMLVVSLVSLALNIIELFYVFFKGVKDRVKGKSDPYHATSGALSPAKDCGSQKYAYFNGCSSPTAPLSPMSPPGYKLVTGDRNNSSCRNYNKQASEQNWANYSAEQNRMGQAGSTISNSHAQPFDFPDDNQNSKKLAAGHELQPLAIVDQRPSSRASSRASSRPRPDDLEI"}, "source": "patent US9879058B2", "about": "“Use of compounds that selectively modulate astrocytic release of substances through hemichannels of connexins and pannexins, without influencing gap junctions, for the treatment of psychiatric disorders” (Universidad Andres Bello, priority 2012, dated 2018)", "key": {"Cx43 gap junctions": {"target": "T1, Cx43 gap junctions (Homo sapiens, UniProt P17302)", "T1 construct": "expressed in transfected cells; host or cells: HeLa", "assay": "Scrape-loading/dye transfer in Cx43 transfected Hela cells", "format": "cell-based", "description": "Gap junction permeability was determined at room temperature using the scrape-loading/dye transfer (SL/DT) technique, Hela cells were incubated with Carboxy-fluorescin (1 mg/ml) in the same Ca2+ free HEPES-buffered salt solution as above, then the test compound was added, followed by scrape-loading, which was performed with a razor blade. After 3 minutes the cells are washed with HEPES-buffered salt solution and mounted in Fluoromount and examined by epifluorescence.\n(§1) A. Animals: All procedures involving animals were in accordance to NIH guidelines and with approval of the bioethical committee of the Universidad Andrés Bello. Sprague Dowley rats (˜60 d old, ˜250 g) were caged individually at 22° C., 12/12 h light/dark cycle. The rats remained in their home box throughout the study, and were removed only briefly for drug microinfusions. […] Dye uptake: Gap junction permeability was determined at room temperature using the scrape-loading/dye transfer (SL/DT) technique, Hela cells were incubated with Carboxy-fluorescin (1 mg/ml) in the same Ca2+ free HEPES-buffered salt solution as above, then the test compound was added, followed byscrape-loading, which was performed with a razor blade. […]"}, "Sprague Dowley rats [1]": {"system": "Sprague Dowley rats", "assay": "Openfield test", "format": "in vivo, rat", "conditions": "microinjected into ventral hippocampus; cacotheline 10 μM, peptides 100 μM", "description": "as §1, with “microinfusions. B. Drugs: For intra hippocampal microinjections Gap19 ([…] (SEQ ID NO: 3), LifeTein, South Plainfield, N.J., USA, >90% purity) was dissolved in PBS to yield a final solution of 100 μM and cacotheline was dissolved in sterile saline to a final concentration of 10 μM.” for “microinfusions.”\nF. Behavioral procedures: To assess the effects of TAT-Gap19 on locomotor activity, entire body movements were measured in the openfield and counted as the number of crossings (transitions) between virtual square subdivisions of 10 cm^2 measured offline from digital video recordings. […] G. Data Analysis: Data were expressed as Mean+SD. […]"}, "Sprague Dowley rats [2]": {"system": "Sprague Dowley rats", "assay": "Dark/light box paradigm", "format": "in vivo, rat", "conditions": "microinjected into ventral hippocampus, 100 μM"}, "Cx43 hemichannels": {"target": "Cx43 hemichannels (Homo sapiens, UniProt P17302)", "conditions": "cited from earlier work"}, "[3]": {"target": "Cx43 gap junction channel (Homo sapiens, UniProt P17302)", "conditions": "cited from earlier work"}}, "note": "“Also recorded” adds a separate entry of the source. Not every detail of the peptide structures is certain; ends, links or a residue may be inferred. No end group written: not given here."}
{"sequence": "YGRKKRRQRRRKQIEIKKFK [TAT-Gap19]", "values": [{"measurement": "Cx43 gap junctional coupling", "setting": "Cx43 gap junctions", "result": "had no effects on Cx43 gap junctional coupling"}, {"measurement": "time in the center of the openfield (thigmotaxis)", "setting": "Sprague Dowley rats [1]", "result": "tendency to decrease time in the center of the open field; also recorded: no significant difference in time spent in the openfield"}, {"measurement": "number of peaks from the dark compartment into the lit compartment", "setting": "Sprague Dowley rats [2]", "result": "decreased peaks in the dark/light test; also recorded: decreased number of peaks"}, {"measurement": "effect on Cx43 hemichannels, previously shown", "setting": "Cx43 hemichannels", "result": "selectively block Cx43 hemichannels"}, {"measurement": "effect on Cx43 gap junction channel communication, previously shown", "setting": "[3]", "result": "without affecting Cx43 gap junction channel communication"}]}
